Source: patent US11813239B2, “Compositions and methods for improving cardiac structure and/or function” (Wisconsin Alumni Research Foundation, priority 2020, dated 2023)

Experiments:
[1] = tested on: postnatal (P7) mouse heart following myocardial infarction; assay: Echocardiography after myocardial infarction in P7 juvenile mice; settings: mean ± SE
[2] = tested on: adult mouse heart following myocardial infarction; assay: Echocardiography after adult MI, malonate treatment starting 1-week post-MI; settings: adult mice, mean ± SE

SMILES | HR (Heart Rate) ([1]; MI at P7 (n = 6), dimethyl malonate 100 mg/kg daily for 2 weeks from birth, echo 21 days post-MI (P7D21)) [BPM] | HR (Heart Rate) ([1]; sham at P7 (SH, n = 6), dimethyl malonate 100 mg/kg daily for 2 weeks from birth, echo at day 21 (P7D21)) [BPM] | HR (Heart Rate) ([2]; MI, 2 WPMI, dimethyl malonate 100 mg/kg daily for 4 weeks starting 1 WPMI) [BPM] | HR (Heart Rate) ([2]; MI, 3 WPMI, dimethyl malonate 100 mg/kg daily for 4 weeks starting 1 WPMI) [BPM] | HR (Heart Rate) ([2]; MI, 4 WPMI, dimethyl malonate 100 mg/kg daily for 4 weeks starting 1 WPMI) [BPM] | HR (Heart Rate) ([2]; MI, 6 WPMI, dimethyl malonate 100 mg/kg daily for 4 weeks starting 1 WPMI) [BPM] | HR (Heart Rate) ([2]; malonate group, MI, 1 WPMI (before start of dosing)) [BPM] | HR (Heart Rate) ([2]; malonate group, Pre (before MI and dosing)) [BPM] | HR (Heart Rate) ([1]; MI at P7 (n = 8), Atpenin A5 100 μg/kg daily, echo 21 days post-MI (P7D21)) [BPM] | HR (Heart Rate) ([1]; sham at P7 (SH, n = 6), Atpenin A5 100 μg/kg daily, echo at day 21 (P7D21)) [BPM]
COC(=O)CC(=O)OC [Malonate, dimethyl malonate] | 435.667 ± 24.313 | 401.000 ± 28.109 | 540.500 ± 33.895 | 486.500 ± 19.347 | 456.833 ± 40.940 | 465.000 ± 18.925 | 462.600 ± 26.250 | 481.167 ± 53.447 | – | –
COc1[nH]c(=O)c(C(=O)[C@@H](C)C[C@H](C)[C@@H](Cl)CCl)c(O)c1OC [Atpenin A5] | – | – | – | – | – | – | – | – | 387.000 ± 22.475 | 426.833 ± 19.170
